From paper PMC2861598, “Ligand Binding and Crystal Structures of the Substrate-Binding Domain of the ABC Transporter OpuA” (PLoS ONE, 2010)
Results are given in words; binding and its absence hold for the method and conditions named.

Biological target: OpuAC, the substrate-binding domain (SBD) of the ABC transporter OpuA from Lactococcus lactis, produced as soluble protein (Lactococcus lactis) (UniProt Q9KIF6)
Assay: SEC-MALS; 200 µl of OpuAC (0.2–0.4 mg/ml) on Superdex 200 10/300GL in 150 mM KPi pH 7.0, with or without 1 mM glycine betaine, room temperature; UV, refractive index and static light scattering detectors; both purified

B1: OpuAC, the substrate-binding domain (SBD) of the ABC transporter OpuA from Lactococcus lactis, produced as soluble protein (domain or fragment, UniProt Q9KIF6 320-573)
chain: DKKVDLVYMNWDSEVASINVLTQAMKEHGFDVKTTALDNAVAWQTVANGQADGMVSAWLPNTHKTQWQKYGKSVDLLGPNLKGAKVGFVVPSYMNVNSIEDLTNQANKTITGIEPGAGVMAASEKTLNSYDNLKDWKLVPSSSGAMTVALGEAIKQHKDIVITGWSPHWMFNKYDLKYLADPKGTMGTSENINTIVRKGLKKENPEAYKVLDKFNWTTKDMEAVMLDIQNGKTPEEAAKNWIKDHQKEVDKWFK
Q: For B1, which binding is on record?
A: no binding (tested: 0.2–0.4 mg/ml)
